Test results: publication PMC7221550, “Membrane Phospholipids and Polyphosphates as Cofactors and Binding Molecules of SERPINA12 (vaspin)” (Molecules, 2020)
Positions count from the first letter of the chain named. In names and notes the source's numbering stands. No constants are given. Whether binding was seen depends on the method and setting. A result given as binding can be weak or reduced; the word gives no strength.

The chains behind the UniProt entries cited, without tags or fusion partners. Where a name states a change or a piece, a line headed by the entry shows the natural chain unless it says otherwise.
UniProt P49862: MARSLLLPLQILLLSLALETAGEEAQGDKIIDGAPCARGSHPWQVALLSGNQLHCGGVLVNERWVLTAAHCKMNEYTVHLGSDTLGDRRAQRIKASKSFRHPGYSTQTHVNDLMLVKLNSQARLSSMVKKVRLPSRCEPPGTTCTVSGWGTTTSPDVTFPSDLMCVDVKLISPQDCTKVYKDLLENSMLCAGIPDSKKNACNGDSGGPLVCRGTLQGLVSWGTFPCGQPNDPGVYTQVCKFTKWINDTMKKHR

B1: Recombinant human vaspin wild type (visceral adipose tissue derived serine protease inhibitor, SERPINA12) (natural protein)
chain: KPSFSPRNYKALSEVQGWKQRMAAKELARQNMDLGFKLLKKLAFYNPGRNIFLSPLSISTAFSMLCLGAQDSTLDEIKQGFNFRKMPEKDLHEGFHYIIHELTQKTQDLKLSIGNTLFIDQRLQPQRKFLEDAKNFYSAETILTNFQNLEMAQKQINDFISQKTHGKINNLIENIDPGTVMLLANYIFFRARWKHEFDPNVTKEEDFFLEKNSSVKVPMMFRSGIYQVGYDDKLSCTILEIPYQKNITAIFILPDEGKLKHLEKGLQVDTFSRWKTLLSRRVVDVSVPRLHMTGTFDLKKTLSYIGVSKIFEEHGDLTKIAPHRSLKVGEAVHKAELKMDERGTEGAAGTGAQTLPMETPLVVKIDKPYLLLIYSEKIPSVLFLGKIVNPIGK
B2: Vaspin variant R211A/K359A (protein, UniProt Q8IW75 22-414)
chain: B1 chain with R190A, K338A
B3: Non-heparin binding (NHB) vaspin variant K188A/K131A/R211A/K359A/R363A (protein, UniProt Q8IW75 22-414)
chain: B1 chain with K110A, K167A, R190A, K338A, R342A

biological target: Recombinant human kallikrein 7 (KLK7) (human, UniProt P49862 30-253); experiment: SDS-PAGE of the covalent serpin-protease complex; vaspin incubated with 3 µM recombinant KLK7 (molar ratio protease/serpin 3:1) for 1 min (2 min in Figure 2), with or without PtdInsPs, unfractionated heparin or polyP; SDS-PAGE, Coomassie staining, densitometry of the 70 kDa complex band; both purified

| binding | Binder |
| --- | --- |
| binds | B1 |
| binds | B2 |
| binds | B3 |
